No constants are given. Whether binding was seen depends on the method and setting. In cells and extracts the contact can be indirect. Some results given as binding are weak or reduced against the parent protein; the word gives no strength. For some assays here: Tags and fused reporters may be left off the sequences shown.
How the values were obtained:
[1] = molecular target: T1, Flag-tagged GNL3 (Flag-GNL3), wild type (human) (UniProt Q9BVP2); experiment: co-IP; anti-Flag (M2) agarose beads, 4 C, 4 h, on lysates of transfected U2OS cells; NP40 lysis buffer (50 mM Tris-HCl pH 8.0, 0.5% NP-40, 1 mM EDTA, 150 mM NaCl) with 20 mM NEM and 5 mM IAA; DMSO or 20 uM ETO; USP36 siRNA in one experiment; immunoblot
T1 sequence: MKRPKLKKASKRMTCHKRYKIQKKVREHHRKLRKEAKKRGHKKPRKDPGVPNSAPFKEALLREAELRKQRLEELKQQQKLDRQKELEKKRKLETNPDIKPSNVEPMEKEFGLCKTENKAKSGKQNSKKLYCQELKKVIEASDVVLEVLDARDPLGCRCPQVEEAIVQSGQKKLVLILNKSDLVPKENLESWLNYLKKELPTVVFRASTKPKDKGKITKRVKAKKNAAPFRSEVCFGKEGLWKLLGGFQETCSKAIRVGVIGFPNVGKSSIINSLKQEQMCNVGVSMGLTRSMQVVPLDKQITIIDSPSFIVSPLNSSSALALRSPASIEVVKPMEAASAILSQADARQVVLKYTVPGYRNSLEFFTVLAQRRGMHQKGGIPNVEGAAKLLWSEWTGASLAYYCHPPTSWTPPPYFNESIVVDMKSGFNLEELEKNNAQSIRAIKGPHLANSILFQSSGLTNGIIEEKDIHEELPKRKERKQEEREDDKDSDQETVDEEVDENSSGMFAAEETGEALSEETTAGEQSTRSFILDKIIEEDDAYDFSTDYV

Protein sequences, listed by entry. Tags and fused reporters are not part of them.
UniProt P54132: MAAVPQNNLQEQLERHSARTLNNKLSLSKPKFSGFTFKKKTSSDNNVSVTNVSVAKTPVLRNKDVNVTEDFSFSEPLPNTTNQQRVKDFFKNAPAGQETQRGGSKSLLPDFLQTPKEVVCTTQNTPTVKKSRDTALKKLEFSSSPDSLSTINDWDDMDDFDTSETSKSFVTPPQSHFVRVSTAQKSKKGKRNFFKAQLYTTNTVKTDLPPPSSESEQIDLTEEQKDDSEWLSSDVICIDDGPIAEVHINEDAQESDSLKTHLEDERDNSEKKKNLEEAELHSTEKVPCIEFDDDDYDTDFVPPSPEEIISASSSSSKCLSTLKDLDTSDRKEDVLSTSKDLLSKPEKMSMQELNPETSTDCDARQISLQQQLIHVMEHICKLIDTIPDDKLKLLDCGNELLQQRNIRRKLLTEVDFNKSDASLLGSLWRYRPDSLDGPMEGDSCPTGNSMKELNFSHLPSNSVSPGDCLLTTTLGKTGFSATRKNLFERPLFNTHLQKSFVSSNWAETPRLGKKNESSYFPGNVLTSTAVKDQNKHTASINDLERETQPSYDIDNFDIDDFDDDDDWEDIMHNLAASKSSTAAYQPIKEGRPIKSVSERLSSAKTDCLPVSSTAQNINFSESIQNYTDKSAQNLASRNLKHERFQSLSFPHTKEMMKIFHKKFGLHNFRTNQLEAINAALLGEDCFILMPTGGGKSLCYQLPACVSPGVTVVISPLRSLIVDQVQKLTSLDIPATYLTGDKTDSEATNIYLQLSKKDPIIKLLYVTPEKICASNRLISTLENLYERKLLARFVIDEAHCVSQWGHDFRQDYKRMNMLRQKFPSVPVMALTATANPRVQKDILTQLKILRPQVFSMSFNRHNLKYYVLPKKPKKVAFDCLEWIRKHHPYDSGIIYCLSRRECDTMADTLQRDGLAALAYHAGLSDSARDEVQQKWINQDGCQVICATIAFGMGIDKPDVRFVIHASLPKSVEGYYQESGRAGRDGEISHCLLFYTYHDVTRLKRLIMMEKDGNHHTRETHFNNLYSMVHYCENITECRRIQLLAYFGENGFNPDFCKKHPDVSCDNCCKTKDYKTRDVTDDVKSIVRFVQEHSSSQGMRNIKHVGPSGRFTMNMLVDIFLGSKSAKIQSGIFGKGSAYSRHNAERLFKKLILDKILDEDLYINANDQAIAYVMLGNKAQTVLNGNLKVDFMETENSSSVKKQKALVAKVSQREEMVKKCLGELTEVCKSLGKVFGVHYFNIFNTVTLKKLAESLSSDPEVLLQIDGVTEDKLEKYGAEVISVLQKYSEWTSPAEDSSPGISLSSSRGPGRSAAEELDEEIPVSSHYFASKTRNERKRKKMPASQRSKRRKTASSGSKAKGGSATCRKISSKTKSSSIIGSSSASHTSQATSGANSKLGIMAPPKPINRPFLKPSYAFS
UniProt Q9H4L4: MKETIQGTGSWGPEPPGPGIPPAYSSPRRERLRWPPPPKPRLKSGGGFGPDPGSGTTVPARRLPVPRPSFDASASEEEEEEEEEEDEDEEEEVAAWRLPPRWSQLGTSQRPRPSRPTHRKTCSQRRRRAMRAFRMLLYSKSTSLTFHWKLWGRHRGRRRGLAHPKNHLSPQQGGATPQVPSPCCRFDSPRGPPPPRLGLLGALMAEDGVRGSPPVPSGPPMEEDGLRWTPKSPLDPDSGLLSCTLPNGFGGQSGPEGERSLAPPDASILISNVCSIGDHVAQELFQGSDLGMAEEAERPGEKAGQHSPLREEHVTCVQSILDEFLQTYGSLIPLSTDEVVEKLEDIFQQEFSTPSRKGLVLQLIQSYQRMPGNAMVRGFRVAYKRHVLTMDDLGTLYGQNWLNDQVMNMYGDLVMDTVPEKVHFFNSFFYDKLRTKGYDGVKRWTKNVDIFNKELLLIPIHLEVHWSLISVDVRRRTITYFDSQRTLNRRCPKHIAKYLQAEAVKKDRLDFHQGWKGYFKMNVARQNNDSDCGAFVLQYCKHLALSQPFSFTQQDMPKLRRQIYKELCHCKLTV

[2] = molecular target: Flag-BLM, wild type (UniProt P54132); experiment: proximity ligation; Duolink PLA on fixed U2OS cells transfected with Flag-GNL3 or Flag-BLM (WT or mutants); DMSO or 20 uM ETO for 2 h; in one experiment with knock-down of endogenous GNL3 and siRNA-resistant Flag-GNL3
[3] = molecular target: Flag-SENP3 (UniProt Q9H4L4); experiment: co-IP; 293 cells transfected with the Flag-tagged protein; co-IP using anti-Flag antibody; immunoblot
[4] = molecular target: Flag-BLM, wild type (UniProt P54132); experiment: co-IP; anti-Flag (M2) agarose beads, 4 C, 4 h, on lysates of transfected U2OS cells; NP40 lysis buffer (50 mM Tris-HCl pH 8.0, 0.5% NP-40, 1 mM EDTA, 150 mM NaCl) with 20 mM NEM and 5 mM IAA; DMSO or 20 uM ETO; USP36 siRNA in one experiment; immunoblot
[5] = molecular target: Flag-SENP3 (UniProt Q9H4L4); experiment: co-IP; co-IP with RNase treatment (Supplementary Figs. S8b, S9a, b; legends not shown)

B1: DNA2 (DNA replication helicase/nuclease 2), endogenous (protein, UniProt P51530 1-1060)
chain: MEQLNELELLMEKSFWEEAELPAELFQKKVVASFPRTVLSTGMDNRYLVLAVNTVQNKEGNCEKRLVITASQSLENKELCILRNDWCSVPVEPGDIIHLEGDCTSDTWIIDKDFGYLILYPDMLISGTSIASSIRCMRRAVLSETFRSSDPATRQMLIGTVLHEVFQKAINNSFAPEKLQELAFQTIQEIRHLKEMYRLNLSQDEIKQEVEDYLPSFCKWAGDFMHKNTSTDFPQMQLSLPSDNSKDNSTCNIEVVKPMDIEESIWSPRFGLKGKIDVTVGVKIHRGYKTKYKIMPLELKTGKESNSIEHRSQVVLYTLLSQERRADPEAGLLLYLKTGQMYPVPANHLDKRELLKLRNQMAFSLFHRISKSATRQKTQLASLPQIIEEEKTCKYCSQIGNCALYSRAVEQQMDCSSVPIVMLPKIEEETQHLKQTHLEYFSLWCLMLTLESQSKDNKKNHQNIWLMPASEMEKSGSCIGNLIRMEHVKIVCDGQYLHNFQCKHGAIPVTNLMAGDRVIVSGEERSLFALSRGYVKEINMTTVTCLLDRNLSVLPESTLFRLDQEEKNCDIDTPLGNLSKLMENTFVSKKLRDLIIDFREPQFISYLSSVLPHDAKDTVACILKGLNKPQRQAMKKVLLSKDYTLIVGMPGTGKTTTICTLVRILYACGFSVLLTSYTHSAVDNILLKLAKFKIGFLRLGQIQKVHPAIQQFTEQEICRSKSIKSLALLEELYNSQLIVATTCMGINHPIFSRKIFDFCIVDEASQISQPICLGPLFFSRRFVLVGDHQQLPPLVLNREARALGMSESLFKRLEQNKSAVVQLTVQYRMNSKIMSLSNKLTYEGKLECGSDKVANAVINLRHFKDVKLELEFYADYSDNPWLMGVFEPNNPVCFLNTDKVPAPEQVEKGGVSNVTEAKLIVFLTSIFVKAGCSPSDIGIIAPYRQQLKIINDLLARSIGMVEVNTVDKYQGRDKSIVLVSFVRSNKDGTVGELLKDWRRLNVAITRAKHKLILLGCVPSLNCYPPLEKLLNHLNSEKLIIDLPSREHESLCHILGDFQRE
- binding [1]: binds

B2: GNL3, endogenous (protein, UniProt Q9BVP2 1-549)
chain: T1 sequence
- binding [2]: binds
- binding [3]: binds
- binding [4]: binds

B3: GNL3 (partner in supplementary experiments whose legends were not shown) (protein, UniProt Q9BVP2 1-549)
chain: T1 sequence
- binding [5]: binds

Reference: article PMC13598120
